Data on one molecule can be found in publication doi:10.1101/2021.12.09.471821.

These are yes or no findings as the source states them, for the method shown. Binding calls can cover weak binding; strength is not graded here.

The assay addresses eukaryotic initiation factor 1A (eIF1A), unlabeled (human). Kind of assay: cryo-EM structure.

B1: eukaryotic initiation factor 5B (eIF5B), unlabeled, as added to the 48S complex for cryo-EM (protein, UniProt O60841 1-1220)
chain: MGKKQKNKSEDSTKDDIDLDALAAEIEGAGAAKEQEPQKSKGKKKKEKKKQDFDEDDILKELEELSLEAQGIKADRETVAVKPTENNEEEFTSKDKKKKGQKGKKQSFDDNDSEELEDKDSKSKKTAKPKVEMYSGSDDDDDFNKLPKKAKGKAQKSNKKWDGSEEDEDNSKKIKERSRINSSGESGDESDEFLQSRKGQKKNQKNKPGPNIESGNEDDDASFKIKTVAQKKAEKKERERKKRDEEKAKLRKLKEKEELETGKKDQSKQKESQRKFEEETVKSKVTVDTGVIPASEEKAETPTAAEDDNEGDKKKKDKKKKKGEKEEKEKEKKKGPSKATVKAMQEALAKLKEEEERQKREEEERIKRLEELEAKRKEEERLEQEKRERKKQKEKERKERLKKEGKLLTKSQREARARAEATLKLLQAQGVEVPSKDSLPKKRPIYEDKKRKKIPQQLESKEVSESMELCAAVEVMEQGVPEKEETPPPVEPEEEEDTEDAGLDDWEAMASDEETEKVEGNKVHIEVKENPEEEEEEEEEEEEDEESEEEEEEEGESEGSEGDEEDEKVSDEKDSGKTLDKKPSKEMSSDSEYDSDDDRTKEERAYDKAKRRIEKRRLEHSKNVNTEKLRAPIICVLGHVDTGKTKILDKLRHTHVQDGEAGGITQQIGATNVPLEAINEQTKMIKNFDRENVRIPGMLIIDTPGHESFSNLRNRGSSLCDIAILVVDIMHGLEPQTIESINLLKSKKCPFIVALNKIDRLYDWKKSPDSDVAATLKKQKKNTKDEFEERAKAIIVEFAQQGLNAALFYENKDPRTFVSLVPTSAHTGDGMGSLIYLLVELTQTMLSKRLAHCEELRAQVMEVKALPGMGTTIDVILINGRLKEGDTIIVPGVEGPIVTQIRGLLLPPPMKELRVKNQYEKHKEVEAAQGVKILGKDLEKTLAGLPLLVAYKEDEIPVLKDELIHELKQTLNAIKLEEKGVYVQASTLGSLEALLEFLKTSEVPYAGINIGPVHKKDVMKASVMLEHDPQYAVILAFDVRIERDAQEMADSLGVRIFSAEIIYHLFDAFTKYRQDYKKQKQEEFKHIAVFPCKIKILPQYIFNSRDPIVMGVTVEAGQVKQGTPMCVPSKNFVDIGIVTSIEINHKQVDVAKKGQEVCVKIEPIPGESPKMFGRHFEATDILVSKISRQSIDALKDWFRDEMQKSDWQLIVELKKVFEII
For the molecule B1, the binding result is listed as “binds weakly”.
